Experiment [1] concerns the target T1, ferroportin (FPN1) on murine macrophage cells (RAW 264.7, J774) (murine) (UniProt Q9JHI9).
T1 sequence (looked up): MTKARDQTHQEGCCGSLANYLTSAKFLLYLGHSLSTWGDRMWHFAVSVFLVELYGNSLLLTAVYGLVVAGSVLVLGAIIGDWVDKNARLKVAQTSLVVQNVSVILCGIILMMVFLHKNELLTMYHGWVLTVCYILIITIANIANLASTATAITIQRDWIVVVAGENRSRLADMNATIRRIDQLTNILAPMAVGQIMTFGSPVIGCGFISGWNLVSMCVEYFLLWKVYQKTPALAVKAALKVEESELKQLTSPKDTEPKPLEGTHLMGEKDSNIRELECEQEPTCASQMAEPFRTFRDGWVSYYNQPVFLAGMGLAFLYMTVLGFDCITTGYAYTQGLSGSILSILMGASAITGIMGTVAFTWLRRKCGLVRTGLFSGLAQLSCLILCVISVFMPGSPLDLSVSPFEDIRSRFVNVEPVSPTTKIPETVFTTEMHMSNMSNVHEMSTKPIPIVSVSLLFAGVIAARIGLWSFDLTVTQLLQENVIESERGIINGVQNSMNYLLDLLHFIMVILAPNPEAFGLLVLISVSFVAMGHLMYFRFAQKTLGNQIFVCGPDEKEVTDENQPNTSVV
Put plainly: DSS cross-linking on RAW 264.7 cells, Ni-NTA pull-down, Western blot with anti-FPN1 Ab (FIG. 7C). (In general: Immunoblotting shows a protein as a band on a membrane.)

The target of experiment [2] is T1, ferroportin (FPN1) on murine macrophage cells (RAW 264.7, J774) (murine). In words: DSS cross-linking on RAW 264.7 cells, Ni-NTA pull-down, Western blot with anti-ferroportin antibody.

No constants are given. Whether binding was seen depends on the method and setting. In cells and extracts the contact can be indirect. Some results given as binding are weak or reduced against the parent protein; the word gives no strength. Tags and fused reporters may be left off the sequences shown.

On to GADTHFPICIFCCGCCHRSKCGMCCKTFDHHHHHH [hepcidin-25His (Hep-25His)], for which the binding result in experiment [1] and in experiment [2] was “binds” each time.

The record behind these values is US20110097749A1.
